This is an account of results in article PMC7819943, “Rice protein-binding microarrays: a tool to detect cis-acting elements near promoter regions in rice”.

The list shows a part of the results.

The experiment deals with T1, OsSMF1 (Oryza sativa, UniProt Q6ZLB0 1-436).
T1 sequence: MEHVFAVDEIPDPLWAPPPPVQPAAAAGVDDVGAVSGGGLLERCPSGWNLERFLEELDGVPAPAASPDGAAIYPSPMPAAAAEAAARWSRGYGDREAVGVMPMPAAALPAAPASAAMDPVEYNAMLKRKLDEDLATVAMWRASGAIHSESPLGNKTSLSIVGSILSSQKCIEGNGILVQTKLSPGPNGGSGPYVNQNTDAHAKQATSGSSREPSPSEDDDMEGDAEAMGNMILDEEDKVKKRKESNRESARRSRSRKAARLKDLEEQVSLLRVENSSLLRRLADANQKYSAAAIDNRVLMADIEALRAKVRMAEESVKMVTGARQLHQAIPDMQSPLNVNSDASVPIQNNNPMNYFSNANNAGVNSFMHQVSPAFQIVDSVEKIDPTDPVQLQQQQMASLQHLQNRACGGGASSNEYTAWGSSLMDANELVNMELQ
The experiment is described as follows: protein-binding microarray (RPBM); PBS, 2% BSA, 51.3 ng/ul salmon testes DNA, 50 uM zinc acetate, 200 nM TF, 25 C, 1 h; high values mean tight binding. The settings on record: protein: recombinant; tags: N-terminal polyhistidine and DsRed monomer fusion (pET32a); chain copies: 2; label: CyDye5-dUTP incorporated in the synthesized complementary strand; 3' TTTTT single-stranded linker to array surface; dsDNA, one strand shown. Put shortly: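 Transcription factors were each fused at the N-terminus to a polyhistidine tag plus DsRed and expressed in E. coli BL21-CodonPlus before Ni–NTA purification. Binding to a double-stranded custom Agilent array was carried out with 200 nM protein at 25 °C for 1 h in PBS, 2% BSA, salmon testes DNA and 50 µM zinc acetate. The binding signal is per-feature fluorescence intensity, in arbitrary units, on an Axon 4000B scanner.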
Take “TGTGCTTGCACAGGAAGATGCAACTAACAGTGAAGTGATGCGGAGTCACCTAGTGCAG”: the binding signal was 13400 fluorescence intensity (a.u.).

“AGTGAAGGTAATTATCTGCCGCACTGCTGATGCTAGCAAACGGAGTCACCTAGTGCAG”: the binding signal was 3500 fluorescence intensity (a.u.). As to “ACTTCCAAGGCTGTTTGTCGTGGGTCCACATGTCAGTTACCGGAGTCACCTAGTGCAG”, the binding signal was 4650 fluorescence intensity (a.u.). As for “AGTACAGTTACAATGCAATTACACTTCAACTATACTATAGCGGAGTCACCTAGTGCAG”, the binding signal is 5920 fluorescence intensity (a.u.). The figure for “CACGAACGAACGCACGCGCGATGCTTCCGATGATCGAAGCCGGAGTCACCTAGTGCAG” is 3920 fluorescence intensity (a.u.); for “TTGCCAAATATGCCATACGTCATCCAATGGTGGTGACGATCGGAGTCACCTAGTGCAG” it is 5550 fluorescence intensity (a.u.). The figure for “ATATTTAATTAACCATACGTTACCATTTATGTGACAGAAGCGGAGTCACCTAGTGCAG” is 3190 fluorescence intensity (a.u.); for “TGCCTAGCGCGAGGATGATGCGGCAAAGTAGGGCTTCGTGCGGAGTCACCTAGTGCAG” it is 3700 fluorescence intensity (a.u.); for “TTGCAACGCTCAACAGACAAGAACAAACGACAAACGCACTCGGAGTCACCTAGTGCAG” it is 38100 fluorescence intensity (a.u.). Then “GAACGGCCGTCTGCCACGTCATTTTCGCCGCCCTCTGAGACGGAGTCACCTAGTGCAG”, with 18100 fluorescence intensity (a.u.). With “TAGTATCTTGCAAATGACTGTCTAATACCTGGCCGTCTGACGGAGTCACCTAGTGCAG”, the binding signal was 3310 fluorescence intensity (a.u.). “GGGCCGCGGTGACGTCGGAAGCTGCCCCGCGCGCGCCAGGCGGAGTCACCTAGTGCAG”: the binding signal was 3760 fluorescence intensity (a.u.). “GCGCCGTGCGCGTGCGCTGTCGTCACCGCCCACGAGAGGACGGAGTCACCTAGTGCAG”: the binding signal is 3670 fluorescence intensity (a.u.). The figure for “TATGAACAAGCCGTGACGACGTGAGTGAAGCGTGGCGTGGCGGAGTCACCTAGTGCAG” is 3530 fluorescence intensity (a.u.). “GCCACCCAGAGACGCCTGTTCCACGTGACAAACTTCCCAACGGAGTCACCTAGTGCAG”: the binding signal is 5450 fluorescence intensity (a.u.).

In the case of “CTGTTTCATTTTACTTGTCATTTATGACGTGATGACACAGCGGAGTCACCTAGTGCAG”, the binding signal was 4840 fluorescence intensity (a.u.). Then “CCGGACTCAGACAGCCTTTGTTACTCAGACAGCGACTCCCCGGAGTCACCTAGTGCAG”, with 3290 fluorescence intensity (a.u.); and “TGACCCTTAATTTGGTAGCCGTACAGTGACAGCCCATCTCCGGAGTCACCTAGTGCAG”, with 4020 fluorescence intensity (a.u.). Then “TTCTTCCTCCGTCAGTTCATCATCTCTCTGTGTGTGTTTTCGGAGTCACCTAGTGCAG”, with 3570 fluorescence intensity (a.u.). Then “CACCCTTAAATCATATATGTGGTTTTAATATTTGGGGATGCGGAGTCACCTAGTGCAG”, with 33200 fluorescence intensity (a.u.).

Regarding “CAAGCTGTGCATGACTCTGTACTGGAGTACCCTGTTCGCACGGAGTCACCTAGTGCAG”, the binding signal was 3240 fluorescence intensity (a.u.).

For “GGGAGGGAGGGGCTCGCTGTCTCATCACTCTGTAACCGATCGGAGTCACCTAGTGCAG”, the binding signal was 3510 fluorescence intensity (a.u.). Then “CCTCCCACCTATTAACCGAAGCACGGTATTACACCCTCGACGGAGTCACCTAGTGCAG”, with 30400 fluorescence intensity (a.u.); and “CCGGCGGCGCCGACGGCAGGTGGCTCGACGACGTGGCCGCCGGAGTCACCTAGTGCAG”, with 3380 fluorescence intensity (a.u.); and “TTTAAGTGGCATTGTCTGTCACCTCCTTCTCCCACTTGTTCGGAGTCACCTAGTGCAG”, with 3600 fluorescence intensity (a.u.).

As for “GAGGATAGCCTCTGGGCAAGGAGGTTGGCATCTTCTTATGCGGAGTCACCTAGTGCAG”, the binding signal is 3250 fluorescence intensity (a.u.). The figure for “TTGCGACTGCTATGTCACCTACTGTGACATCACTACCCAACGGAGTCACCTAGTGCAG” is 6170 fluorescence intensity (a.u.). Then “ATTCCCATTGTCATGCTGCCACTAATCTGATTGTGTCACTCGGAGTCACCTAGTGCAG”, with 4490 fluorescence intensity (a.u.); and “CACAGCCACCAGTACTGCCTATATATACACGCTCTCTCCACGGAGTCACCTAGTGCAG”, with 23900 fluorescence intensity (a.u.); and “CTCAGCCTGACAAAACCTGACGTGTTTCGCGTAGCAACCTCGGAGTCACCTAGTGCAG”, with 6720 fluorescence intensity (a.u.). Turning to “GTGATGTTGTGCGTGTAGTGATGTGTGTACATGTACGCTTCGGAGTCACCTAGTGCAG”, the binding signal is 3910 fluorescence intensity (a.u.). The figure for “GACGTTTTCCGAGGAATGACGCTAACTTTCGATAGCTAGGCGGAGTCACCTAGTGCAG” is 33600 fluorescence intensity (a.u.); for “CGCCACCATTGACAGCGAACCGTTGGATCAAATTTAGACGCGGAGTCACCTAGTGCAG” it is 3800 fluorescence intensity (a.u.); for “GTTTGTGTTAACTTGACCTGACAAGTCACCTAGAGTCAAACGGAGTCACCTAGTGCAG” it is 5090 fluorescence intensity (a.u.). The figure for “AACAGCTAGTCAAACGACGAATGCGAGAGTGCCACGTGTCCGGAGTCACCTAGTGCAG” is 22800 fluorescence intensity (a.u.); for “TTAGTGGTGTACGTCATATATGAAACTAGGTGATTCCCCACGGAGTCACCTAGTGCAG” it is 5180 fluorescence intensity (a.u.); for “TGGACTCTGTAAATGACATCATCAAGTTCTGTGAAAATAGCGGAGTCACCTAGTGCAG” it is 5220 fluorescence intensity (a.u.).

As for “TTTGGCTATTTATACGTACCGCGGGAGCCTGTGTGCAGAGCGGAGTCACCTAGTGCAG”, the binding signal is 3140 fluorescence intensity (a.u.).

For “GGCAAACCAGTAACTAGAAACCACGTTATTCAAAAGCATTCGGAGTCACCTAGTGCAG”, the binding signal was 3940 fluorescence intensity (a.u.). Consider “GCTGCTGCTGCTTTTGCTCTTTGTGTGTTCATGTGAGGAGCGGAGTCACCTAGTGCAG”, for which the binding signal was 3800 fluorescence intensity (a.u.).

Turning to “CGTAATATAGGTGTGTAAAAGAAAATCCATATCACGTTCCCGGAGTCACCTAGTGCAG”, the binding signal is 28100 fluorescence intensity (a.u.). As for “ATAATGAAAATGAGAATTCATGCCAGCTCTGCAAAGTGGACGGAGTCACCTAGTGCAG”, the binding signal is 4780 fluorescence intensity (a.u.).
